No constants are given. Whether binding was seen depends on the method and setting. Some entries that bind do so weakly or less than the wild type.
Columns and labels:
[1] = target: T1, β3 integrin, surface protein of NIH3T3-derived cells (UniProt O54890); test: affinity chromatography and immunoblot (figure legend)
T1 sequence (surface biotinylated (sulfo-NHS-LC-Biotin), looked up): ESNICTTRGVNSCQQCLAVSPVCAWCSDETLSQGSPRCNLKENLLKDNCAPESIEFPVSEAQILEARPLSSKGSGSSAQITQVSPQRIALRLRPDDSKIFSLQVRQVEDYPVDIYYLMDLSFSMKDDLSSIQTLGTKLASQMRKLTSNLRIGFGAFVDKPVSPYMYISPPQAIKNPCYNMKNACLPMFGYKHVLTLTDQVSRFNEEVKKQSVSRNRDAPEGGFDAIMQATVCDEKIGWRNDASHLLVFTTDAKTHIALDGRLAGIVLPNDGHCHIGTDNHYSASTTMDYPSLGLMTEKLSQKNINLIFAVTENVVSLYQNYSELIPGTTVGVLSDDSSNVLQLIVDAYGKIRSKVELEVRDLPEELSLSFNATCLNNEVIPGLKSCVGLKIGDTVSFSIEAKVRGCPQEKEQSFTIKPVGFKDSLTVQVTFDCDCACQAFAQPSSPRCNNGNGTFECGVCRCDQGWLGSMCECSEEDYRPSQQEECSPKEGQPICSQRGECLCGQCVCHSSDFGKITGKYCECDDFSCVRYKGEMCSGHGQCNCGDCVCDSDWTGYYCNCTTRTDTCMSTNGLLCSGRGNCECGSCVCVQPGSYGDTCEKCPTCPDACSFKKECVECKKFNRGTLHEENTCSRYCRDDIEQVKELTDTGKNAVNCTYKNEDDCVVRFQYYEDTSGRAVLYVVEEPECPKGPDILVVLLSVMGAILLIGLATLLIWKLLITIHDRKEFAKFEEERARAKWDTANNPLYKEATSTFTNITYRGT

[2] = target: T1, β3 integrin, surface protein of NIH3T3-derived cells; test: two-column affinity chromatography (ICAM-2 solid support, streptavidin-agarose) and immunoblot
[3] = target: T1, β3 integrin, surface protein of NIH3T3-derived cells; test: final eluates of the ICAM-2 solid support and the streptavidin-agarose column (surface-biotinylated cells) immunoblotted with an anti-β3 monoclonal antibody

Measured: binding

B1: soluble human ICAM-2 protein, biochemically purified from retrovirally transduced NIH3T3 cells (ligand, UniProt P13598 25-275, looked up)
chain: KVFEVHVRPKKLAVEPKGSLEVNCSTTCNQPEVGGLETSLDKILLDEQAQWKHYLVSNISHDTVLQCHFTCSGKQESMNSNVSVYQPPRQVILTLQPTLVAVGKSFTIECRVPTVEPLDSLTLFLFRGNETLHYETFGKAAPAPQEATATFNSTADREDGHRNFSCLAVLDLMSRGGNIFHKHSAPKMLEIYEPVSDSQMVIIVTVVSVLLSLFVTSVLLCFIFGQHLRQQRMGTYGVRAAWRRLPQAFRP
modifications: FITC (NHS-fluorescein) conjugate where used as ICAM-2-FITC, sites not stated
notes: mature; also called sICAM-2; soluble ICAM-2
binds: all assays above
